# Assay results from the supplement of paper PMC3334620.
# Over roughly 33,000 sequences, “E-score (-0.5 to 0.5)” has its median near -0.0034; the highest 2% begin near 0.25. The list shows a part of the results.
# Biological target: T1, Yap3 (UniProt P38749)
# T1 sequence: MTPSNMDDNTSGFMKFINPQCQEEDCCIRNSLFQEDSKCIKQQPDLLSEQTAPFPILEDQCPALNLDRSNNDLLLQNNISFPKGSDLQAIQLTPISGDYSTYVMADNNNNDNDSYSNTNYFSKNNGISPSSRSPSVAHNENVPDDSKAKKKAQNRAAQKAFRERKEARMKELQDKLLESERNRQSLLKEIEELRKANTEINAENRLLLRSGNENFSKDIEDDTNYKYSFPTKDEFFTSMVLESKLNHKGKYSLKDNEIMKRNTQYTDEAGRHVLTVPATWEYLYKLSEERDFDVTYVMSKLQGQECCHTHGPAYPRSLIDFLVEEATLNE
# Experiment: PBM E-score (8-mer binding enrichment) (E-score (-0.5 to 0.5)); higher = stronger / more preferred TF binding
# Settings: protein concentration: 100 nM; construct: GST-full length
# How it was run: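 E-scores (a modified Wilcoxon-Mann-Whitney statistic) were assigned by the Universal PBM Analysis Suite to every ungapped eight-base word pooled with its reverse complement. The input came from universal all-10-mer Agilent arrays made double-stranded by primer extension and probed with GST-tagged yeast transcription factors at about 100-200 nM. Fluorescent anti-GST detected bound protein, and masliner normalised the scans.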
row,Sequence,PBM E-score
1,GGTTACCA,0.187
2,TCCATGAA,-0.0172
3,CGAGCAAC,-0.0655
4,ACGGCCAT,-0.195
5,GCCCCCGC,-0.369
6,GACGCTGA,-0.0739
7,CGGCCAAA,-0.117
8,GTCGATTA,0.093
9,TCACGTAA,0.359
10,CTGTTAAG,-0.044
11,ATTGTTAA,0.17
12,CACCGCTA,-0.11
13,CCTGTTAA,-0.0168
14,ATAGAACA,0.14
15,AGAGTGTA,-0.109
16,AAAGGTCT,-0.0778
17,ACTAAGGC,-0.0835
18,CCGTGTTA,0.0372
19,ACCTTTAG,-0.103
20,ATGTACTA,0.104
21,CCAATCAG,-0.251
22,AGCGGCAG,-0.176
23,CGTCACTA,0.143
24,CTGGTCGC,-0.0563
25,CGTCGGGA,-0.0475

row,Sequence,PBM E-score
1,ATTGGCAA,0.188
2,GTAGCGGA,-0.0099
3,TAGAGGAA,-0.144
4,AAAGCGCT,0.182
5,ATCACGCA,-0.0606
6,ACGCGGAT,0.107
7,ATTTCCCG,0.231
8,GGCTGAGA,-0.00882
9,AAAAACAA,0.28
10,CGTCCTCA,-0.0347
11,ACCCCCTC,-0.404
12,CCATGGTC,-0.151
13,GACAACTC,0.0164
14,ATGGCGAA,0.204
15,ATGCAGAG,-0.234
16,ATATGGAG,0.264
17,GATCCCGA,-0.0358
18,CCCCCGGC,-0.413
19,CACGGCTG,-0.277
20,GTCCATCA,-0.0672
21,AGGTCCCG,-0.114
22,GTAAGGCA,0.0101
23,CGCACCAA,-0.106
24,ACGAATTC,0.0442
25,GGGATCGA,-0.124

row,Sequence,PBM E-score
1,ACCGTACC,-0.0736
2,GTACCGAA,0.037
3,AGCTGGGG,-0.214
4,CAGCCCCC,-0.384
5,CTGGGAGA,-0.155
6,CTGCATCA,0.0347
7,CCGCTCAA,-0.0107
8,AGACACTG,-0.00923
9,GCCTCCGA,-0.15
10,ATCAGCGC,0.0141
11,ATATACAC,0.171
12,AACAACGG,0.104
13,AAAGGGGT,-0.163
14,CCTACTTC,-0.0676
15,GATCGGGA,-0.204
16,CTAAATAG,0.135
17,AGTCAATG,-0.0836
18,CGTAGTAC,0.0811
19,AGGGGAAG,-0.2
20,CCTGTGTC,-0.124
21,ACCAGCCG,-0.0862
22,ACTTGAAT,0.105
23,CGACCTCC,-0.111
24,CGTAGTCA,-0.0652
25,TACAGAAA,0.262

# Quoted at random: four records from the list, in no set order.
row,Sequence,PBM E-score
22,ACTTGAAT,0.105
3,AGCTGGGG,-0.214
17,AGTCAATG,-0.0836
15,GATCGGGA,-0.204

# Going on with the list.

row,Sequence,PBM E-score
1,CAGGTGGC,-0.173
2,ATAGTTGC,0.224
3,CCTCAGTA,-0.129
4,AATCATTA,0.0925
5,CCAGTTCA,-0.0846
6,GAGGATAC,-0.0386
7,CAAGACTC,-0.0232
8,CATCGCGA,0.112
9,CCGGTCAA,0.0995
10,CGGCACCC,-0.168
11,CGACGTGA,0.0646
12,ATCTCAAG,0.123
13,AGGCTTGA,0.122
14,ATAAGGCG,0.0352
15,CGGTCAAA,0.124
16,GGAGGAAC,-0.242
17,AGCTCAAA,0.0486
18,CCCAAAGC,-0.0848
19,TTACGAAA,0.202
20,AACTATTG,0.152
21,AAGCCATT,-0.0174
22,AGTAACCC,-0.00628
23,AGTAGGCA,0.0302
24,ACGACTCG,-0.13
25,TCACGACA,0.0543

row,Sequence,PBM E-score
1,CCTCTCCG,-0.312
2,AGTGACAA,0.107
3,CGGTAATA,0.202
4,CTCGGGTC,-0.0553
5,AGGAGGCC,-0.19
6,GAATATAA,0.195
7,ATAGCTTC,-0.058
8,GATACTAC,0.0824
9,AATGCCCT,-0.154
10,AGCTCTCG,-0.212
11,ATCTGACA,0.0405
12,CCATGTAG,-0.014
13,GGTGCCGA,-0.0673
14,CTAGAAAC,0.0635
15,ACGGTCGG,-0.0385
16,TGATCGCA,-0.0549
17,AAGAAAGA,0.0743
18,GAAACCTC,-0.208
19,AGGAGTGC,-0.0507
20,AGATGAGG,-0.0678
21,CGATATCG,0.208
22,CCCTCAAC,-0.239
23,CAGGTAAC,-0.17
24,CGTATCTA,0.0965
25,ACAGAAAC,0.285

row,Sequence,PBM E-score
1,AATAATTA,0.316
2,ATGGGCGG,-0.0363
3,AAGTATGG,0.0246
4,ATTAGTAC,0.136
5,ATCCTGTG,-0.0412
6,CCAGTCGG,-0.149
7,GATAGACA,0.0506
8,CCCAATAG,-0.031
9,AGCGTTTC,-0.00718
10,GCGTCCGA,-0.114
11,GGTAGGTA,-0.112
12,CTAAGATC,0.0564
13,AGGGGGCC,-0.356
14,GCAGATCC,0.0102
15,CCACATTC,0.00371
16,TGACCTAA,0.072
17,CTTTCCGC,-0.0162
18,AGGTGACT,-0.0767
19,CATTAGCA,0.0386
20,GGCGGATA,-0.121
21,AAACATTC,-0.0161
22,AGCCGGAA,0.103
23,AGATTAGG,0.0272
24,GCCAACCA,-0.209
25,CGTGCGTA,-0.0168

row,Sequence,PBM E-score
1,ATTCCAAC,0.11
2,GCCCGGCC,-0.38
3,ACGTAGCA,0.0068
4,CGCCTTCC,-0.216
5,AAGGTTAA,0.0137
6,CGACGACC,-0.14
7,AACGGAAT,0.262
8,ACAGCCGA,-0.142
9,AGCCTTTG,-0.17
10,GAATGTAA,0.221
11,CGCGCTAA,0.2
12,CGAGCACA,0.0403
13,ACGATCCA,-0.102
14,GCCATGTA,0.102
15,TAATAACA,0.189
16,AACTTTAT,0.163
17,CAGTAATC,0.0876
18,AGACAAAG,-0.0105
19,ATTTTACG,0.309
20,CGAATGAG,0.0546
21,AGACGAGA,0.0448
22,ATAGATCC,-0.0273
23,ACTGACAT,0.0703
24,GGCTAAAA,-0.127
25,CCTCTAAC,-0.00843

# 6 successive records already listed, for reference:
row,Sequence,PBM E-score
20,CGAATGAG,0.0546
21,AGACGAGA,0.0448
22,ATAGATCC,-0.0273
23,ACTGACAT,0.0703
24,GGCTAAAA,-0.127
25,CCTCTAAC,-0.00843

# Going on with the list:

row,Sequence,PBM E-score
1,CCACGTAA,0.0186
2,GCAATGCC,0.0775
3,CCTAAGAA,0.0334
4,GTCCCCCA,-0.198
5,ACCGGATC,-0.0261
6,GGACAAGA,-0.00257
7,ATATTCAA,0.238
8,AAGGTTGG,0.0215
9,GATTGAGA,0.156
10,GTATTGGA,0.00161
11,AAGCTACG,-0.078
12,CTTAGTCA,0.373
13,CCACTCCG,-0.0481
14,GATAGTCC,-0.0286
15,AACGATAC,0.0446
16,GCCGAAAC,-0.075
17,GCATCGCA,-0.361
18,AATTAGAT,0.245
19,AGTGGCCA,-0.0423
20,CATGCATG,0.0144
21,AACTCATT,0.0581
22,TAGTTTAA,0.177
23,GACCGGGC,-0.19
24,CGAGACTC,-0.0387
25,GAGGTCGC,-0.205

# Rewritten as tab-separated lines: part of the list above.
row	Sequence	PBM E-score
9	GATTGAGA	0.156
10	GTATTGGA	0.00161
21	AACTCATT	0.0581

# Carrying on:

row,Sequence,PBM E-score
1,CTAAGTAG,0.16
2,AGAATACC,0.125
3,AGTACCGG,-0.179
4,GCGTAGCA,-0.02
5,TAACCCTA,-0.0956
6,ACCGCCGT,-0.0221
7,CAACATGG,0.14
8,ATGGCACG,-0.081
9,ACCCTGCA,0.122
10,ATAGATTC,-0.0357
11,AACGATTA,0.0595
12,ATCGGCGA,-0.127
13,ATACGTAT,0.296
14,CTTGGGCA,0.0848
15,GCTCCCCA,-0.353
16,AAAAGTGT,-0.016
17,GGGACGTA,-0.0984
18,GCCCATAA,-0.13
19,CGCTTACA,0.062
